Data from PubChem BioAssay AID194 (DTP/NCI, 2004).
The list shows only some results of the screen, not a fair sample: it gathers tests that were run many times, whatever their T/C, doses with no T/C, and many T/C values between a quarter and a half above the control. Other doses and runs of a compound stand elsewhere. T/C is the treated group as % of the vehicle group. Schedules are NCI's codes, read here as Q, the interval in days (D) or hours (H), X, the number of doses. Some entries hold several experiments; the values are given in rising order. Some doses have a count of surviving animals in place of a T/C: the source holds a T/C of zero for them, seemingly a mark for toxic or unscored doses. Some survivor counts are full or nearly so, which does not show that the dose was tolerated: survival well below the control is almost never listed, so the zero probably covers shortened survival too. Survivors were counted at the toxicity check, usually on the fifth day, unless a day is given; later deaths do not show. Some schedules carry Z or #; the key to these is not given. Where survival is the endpoint, the PubChem record calls one and a half times the control and up active, and a quarter to a half above the control has no call in these data; cut-offs in other NCI protocols can differ. Some T/C values carry the count of animals alive at the toxicity check (mostly the fifth day); without a count, all were alive then. Additions like (4×) give the number of equal values in this list. Where a SMILES comes first, the peptide text is derived from it. Bridges are numbered along the chain shown (N, C = ends). Roman numbers before positions name the chains, in order. [ ]: non-standard residue; d: D form. The star is where a group is joined. Quinoxaline2carbonyl = O=C(c1cnc2ccccc2n1)*; NMeV = CN[CH](C(=O)O)C(C)C; NMeC = CN[CH](CS)C(=O)O

System: BDF1 mice, B16 melanoma s.c., survival/tumor T/C
Experiment: NCI In Vivo Anticancer Drug Screen. Data for tumor model B16 Melanoma (subcutaneous) in B6D2F1 (BDF1) mice
Procedure: The antitumor activity of compounds was measured in mice bearing transplantable tumors. Survival or tumor size were measured and the results are expressed as the measurement made in the treated group (T) divided by the measurement made in the vehicle treated control group (C). The tumor model used in this assay is B16 Melanoma (subcutaneous) in B6D2F1 (BDF1) mice

[1] = T/C endpoint: median survival time, dose: 0.13 mg/kg/injection, schedule: Q01DX009 (ip), vehicle: saline, higher T/C = longer survival
[2] = T/C endpoint: median survival time, dose: 2.0 mg/kg/injection, schedule: Q01DX009 (ip), vehicle: saline, higher T/C = longer survival
[3] = T/C endpoint: median survival time, dose: 25.0 mg/kg/injection, schedule: Q01DX009 (ip), vehicle: Klucel (hydroxypropylcellulose) (HPC), higher T/C = longer survival
[4] = T/C endpoint: median survival time, dose: 50.0 mg/kg/injection, schedule: Q01DX009 (ip), vehicle: Klucel (hydroxypropylcellulose) (HPC), higher T/C = longer survival
[5] = T/C endpoint: median survival time, dose: 100.0 mg/kg/injection, schedule: Q01DX009 (ip), vehicle: Klucel (hydroxypropylcellulose) (HPC), higher T/C = longer survival

COc1cccc2c1C(=O)c1c(O)c3c(c(O)c1C2=O)C[C@@](O)(C(C)=O)C[C@@H]3OC1CC(N)C(O)C(C)O1 (some centres not stated)
T/C [1]: 87, 90, 102, 111 % of control | survivor count [1]: 6 of 6 | T/C (T/C endpoint: median survival time, dose: 0.25 mg/kg/injection, schedule: Q01DX009 (ip), vehicle: saline, higher T/C = longer survival): 88, 89, 95, 98 (2×), 107, 109, 146 % of control | T/C (T/C endpoint: median survival time, dose: 0.5 mg/kg/injection, schedule: Q01DX009 (ip), vehicle: saline, higher T/C = longer survival): 91, 94, 95, 97, 101, 102, 107, 111 % of control | T/C (T/C endpoint: median survival time, dose: 1.0 mg/kg/injection, schedule: Q01DX009 (ip), vehicle: saline, higher T/C = longer survival): 88, 94, 100, 103, 109, 110, 128, 137 % of control | T/C [2]: 87, 94, 111 % of control (2×) | survivor count [2]: 5 of 6, 10 of 10, 6 of 6 | survivor count (T/C endpoint: median survival time, dose: 4.0 mg/kg/injection, schedule: Q01DX009 (ip), vehicle: saline, higher T/C = longer survival): 10 of 10 | T/C (T/C endpoint: median tumor weight (est.), dose: 0.25 mg/kg/injection, schedule: Q01DX009 (ip), vehicle: saline, evaluated on day 15, higher T/C = larger tumour): 136 % of control | T/C (T/C endpoint: median tumor weight (est.), dose: 0.5 mg/kg/injection, schedule: Q01DX009 (ip), vehicle: saline, evaluated on day 15, higher T/C = larger tumour): 132 and 140 % of control

CC1NC(=O)C(NC(=O)c2cnc3ccccc3n2)COC(=O)C(C(C)C)N(C)C(=O)C2CSSCC(C(=O)N(C)C(C(C)C)C(=O)OCC(NC(=O)c3cnc4ccccc4n3)C(=O)NC(C)C(=O)N2C)N(C)C1=O (configuration not stated) (I: Quinoxaline2carbonyl-SA[NMeC][NMeV] / II: Quinoxaline2carbonyl-SA[NMeC][NMeV]; ester I:1-II:C, I:C-II:1; disulfide I:3-II:3; configuration not given here)
survivor count (T/C endpoint: median survival time, dose: 180.0 micrograms/kg/injection, schedule: Q01DX009 (ip), vehicle: Klucel (hydroxypropylcellulose) (HPC), higher T/C = longer survival): 10 of 10

CN(Cc1cnc2nc(N)nc(N)c2n1)c1c(Cl)cc(C(=O)NC(CCC(=O)O)C(=O)O)cc1Cl (configuration not stated)
survivor count (T/C endpoint: median survival time, dose: 1350.0 mg/kg/injection, schedule: Q04DX003 (ip), vehicle: sodium bicarbonate, higher T/C = longer survival): 8 of 10 | survivor count (T/C endpoint: median survival time, dose: 1500.0 mg/kg/injection, schedule: Q01DX001 (ip), vehicle: sodium bicarbonate, higher T/C = longer survival): 6 of 10

C[C@@H](CN1CC(=O)NC(=O)C1)N1CC(=O)NC(=O)C1
T/C (T/C endpoint: median survival time, dose: 8.0 mg/kg/injection, schedule: Q01DX009 (ip), vehicle: Klucel (hydroxypropylcellulose) (HPC), higher T/C = longer survival): 131 % of control | T/C (T/C endpoint: median survival time, dose: 8.0 mg/kg/injection, schedule: Q01DX009 (ip), vehicle: water, higher T/C = longer survival): 131 % of control | T/C (T/C endpoint: median survival time, dose: 32.0 mg/kg/injection, schedule: Q01DX009 (ip), vehicle: water, higher T/C = longer survival): 139 % of control | survivor count (T/C endpoint: median survival time, dose: 50.0 mg/kg/injection, schedule: Q04DX003 (ip), vehicle: saline, higher T/C = longer survival): 10 of 10 | T/C (T/C endpoint: median survival time, dose: 64.0 mg/kg/injection, schedule: Q01DX009 (ip), vehicle: water, higher T/C = longer survival): 142 % of control | T/C (T/C endpoint: median survival time, dose: 128.0 mg/kg/injection, schedule: Q01DX009 (ip), vehicle: water, higher T/C = longer survival): 126 % of control

O=NN(CCF)C(=O)NCCO
survivor count (T/C endpoint: median survival time, dose: 14.4 mg/kg/injection, schedule: Q01DX007 (ip), vehicle: water, higher T/C = longer survival): 5 of 10 on day 55 | survivor count (T/C endpoint: median survival time, dose: 24.0 mg/kg/injection, schedule: Q01DX007 (ip), vehicle: water, higher T/C = longer survival): 1 of 10 on day 55

COc1cccc2c1C(=O)c1c(O)c3c(c(O)c1C2=O)CC(O)(C(C)=O)CC3OC1CC(N)C(O)C(C)O1 (configuration not stated)
T/C (T/C endpoint: median survival time, dose: 2.9 mg/kg/injection, schedule: Q01DX009 (ip), vehicle: saline, higher T/C = longer survival): 125 % of control | survivor count (T/C endpoint: median survival time, dose: 46.8 mg/kg/injection, schedule: Q01DX009 (ip), vehicle: saline, higher T/C = longer survival): 10 of 10

OCC1OC(n2cnc3c2NC=NC[C@H]3O)CC1O (some centres not stated)
T/C (T/C endpoint: median survival time, dose: 0.4 mg/kg/injection, schedule: Q03HX024 (ip), vehicle: saline, higher T/C = longer survival): 130 % of control

COC1/C=C\C=C(/C)C(=O)NC2=CC(=O)C(=O)C(=C2O)CC(C)CC(OC)C(O)C(C)/C=C(\C)C1OC(N)=O (configuration not stated)
survivor count (T/C endpoint: median survival time, dose: 1.56 mg/kg/injection, schedule: Q01DX005 (ip), vehicle: other, higher T/C = longer survival): 6 of 6 | survivor count (T/C endpoint: median survival time, dose: 12.5 mg/kg/injection, schedule: Q01DX005 (ip), vehicle: other, higher T/C = longer survival): 5 of 6 | survivor count (T/C endpoint: median survival time, dose: 25.0 mg/kg/injection, schedule: Q01DX005 (ip), vehicle: other, higher T/C = longer survival): 0 of 6

O=C1C(=O)c2ccccc2C(O)=C1CC=C(Cl)Cl
T/C (T/C endpoint: median survival time, dose: 12.5 mg/kg/injection, schedule: Q01DX009 (ip), vehicle: Klucel (hydroxypropylcellulose) (HPC), higher T/C = longer survival): 104, 104 [5 of 6 alive], 110, 115, 137, 140 % of control | T/C [3]: 98, 104 (2×), 126, 145 % of control | survivor count [3]: 5 of 6 | T/C [4]: 104, 112, 124, 136 % of control [5 of 6 alive] | survivor count [4]: 1 of 6 and 5 of 6 | T/C [5]: 96 % of control [5 of 6 alive] | survivor count [5]: 0 of 6, 1 of 6, 2 of 6, 6 of 6 | survivor count (T/C endpoint: median tumor weight (est.), dose: 100.0 mg/kg/injection, schedule: Q01DX009 (ip), vehicle: Klucel (hydroxypropylcellulose) (HPC), higher T/C = larger tumour): 1 of 6 and 3 of 6

COc1cccc2c1C(=O)c1c(O)c3c(c(O)c1C2=O)C[C@@](O)(C(=O)COC(=O)Cc1ccccc1)C[C@@H]3OC1CC(N)C(O)C(C)O1 (some centres not stated)
survivor count (T/C endpoint: median survival time, dose: 4.0 mg/kg/injection, schedule: Q01DX009 (ip), vehicle: saline with Tween-80, higher T/C = longer survival): 10 of 10 | survivor count (T/C endpoint: median survival time, dose: 8.0 mg/kg/injection, schedule: Q01DX009 (ip), vehicle: saline with Tween-80, higher T/C = longer survival): 10 of 10 | survivor count (T/C endpoint: median survival time, dose: 16.0 mg/kg/injection, schedule: Q01DX009 (ip), vehicle: saline with Tween-80, higher T/C = longer survival): 6 of 10

CO[C@H]1/C=C/O[C@@]2(C)Oc3c(C)c(O)c4c(O)c(c(/C=N/N5C(C)CN(Cc6ccccc6)CC5C)c(O)c4c3C2=O)NC(=O)/C(C)=C\C=C\[C@H](C)[C@H](O)[C@@H](C)[C@@H](O)[C@@H](C)[C@H](OC(C)=O)[C@@H]1C (some centres not stated)
survivor count (T/C endpoint: median survival time, dose: 25.0 mg/kg/injection, schedule: Q02DX Z (oral), vehicle: Klucel (hydroxypropylcellulose) (HPC), higher T/C = longer survival): 10 of 10 | survivor count (T/C endpoint: median survival time, dose: 400.0 mg/kg/injection, schedule: Q02DX Z (oral), vehicle: Klucel (hydroxypropylcellulose) (HPC), higher T/C = longer survival): 10 of 10 | survivor count (T/C endpoint: median survival time, dose: 800.0 mg/kg/injection, schedule: Q02DX Z (oral), vehicle: Klucel (hydroxypropylcellulose) (HPC), higher T/C = longer survival): 10 of 10 | survivor count (T/C endpoint: median survival time, dose: 1600.0 mg/kg/injection, schedule: Q02DX Z (oral), vehicle: Klucel (hydroxypropylcellulose) (HPC), higher T/C = longer survival): 10 of 10
